Experimental data taken from publication PMC7958614.
No constants are given. Whether binding was seen depends on the method and setting. For some assays here: Binding seen in cells or lysates may run through a third protein. Some entries that bind do so weakly or less than the wild type. For some assays here: Sequences can lack the tags named with a protein. Values belong to the molecule of their own block, whether it stands above or below them.

By UniProt entry, the sequences of proteins in these tests, tags left out. Residues count along the entry.
UniProt P49682: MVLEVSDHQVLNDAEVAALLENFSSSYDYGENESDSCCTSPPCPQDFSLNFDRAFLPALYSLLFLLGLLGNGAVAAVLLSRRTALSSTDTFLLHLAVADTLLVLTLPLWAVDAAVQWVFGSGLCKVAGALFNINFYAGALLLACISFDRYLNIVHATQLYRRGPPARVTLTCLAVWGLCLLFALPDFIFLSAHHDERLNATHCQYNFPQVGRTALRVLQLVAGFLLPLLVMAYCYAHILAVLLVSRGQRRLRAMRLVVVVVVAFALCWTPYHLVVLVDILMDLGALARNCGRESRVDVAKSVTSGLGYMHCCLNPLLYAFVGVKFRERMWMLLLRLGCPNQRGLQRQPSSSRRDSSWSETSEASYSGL
UniProt P49407: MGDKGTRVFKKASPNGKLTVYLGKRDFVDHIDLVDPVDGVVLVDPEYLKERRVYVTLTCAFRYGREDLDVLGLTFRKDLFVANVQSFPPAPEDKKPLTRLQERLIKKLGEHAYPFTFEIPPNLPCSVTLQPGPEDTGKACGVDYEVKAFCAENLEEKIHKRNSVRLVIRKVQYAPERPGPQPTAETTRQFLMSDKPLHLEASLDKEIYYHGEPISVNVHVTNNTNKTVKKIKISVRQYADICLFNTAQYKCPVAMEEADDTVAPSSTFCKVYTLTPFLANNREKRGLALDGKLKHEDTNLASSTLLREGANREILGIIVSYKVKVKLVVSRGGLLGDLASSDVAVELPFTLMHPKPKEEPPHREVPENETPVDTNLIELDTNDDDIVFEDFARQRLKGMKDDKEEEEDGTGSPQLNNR
UniProt P13501, residues 24-91: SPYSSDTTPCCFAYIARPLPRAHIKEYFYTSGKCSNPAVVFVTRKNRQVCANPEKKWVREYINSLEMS
UniProt P02778, residues 22-98: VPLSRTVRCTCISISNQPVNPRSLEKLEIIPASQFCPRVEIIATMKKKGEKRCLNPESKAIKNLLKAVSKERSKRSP
UniProt P32121: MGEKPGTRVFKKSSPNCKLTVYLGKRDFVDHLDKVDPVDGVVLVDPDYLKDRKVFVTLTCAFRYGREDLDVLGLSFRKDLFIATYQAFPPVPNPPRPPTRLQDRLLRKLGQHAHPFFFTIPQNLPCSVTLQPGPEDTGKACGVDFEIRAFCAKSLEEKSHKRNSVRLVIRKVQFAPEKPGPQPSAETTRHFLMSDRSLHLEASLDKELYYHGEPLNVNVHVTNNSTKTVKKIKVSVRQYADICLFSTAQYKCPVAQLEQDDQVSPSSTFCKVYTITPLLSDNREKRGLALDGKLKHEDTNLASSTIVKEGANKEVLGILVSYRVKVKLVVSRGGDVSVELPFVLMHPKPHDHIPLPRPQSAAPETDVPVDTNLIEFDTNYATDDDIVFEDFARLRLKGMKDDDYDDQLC

What was measured:
[1] = molecular target: T1, human ACKR2 on HEK293T cells (HEK-ACKR2) (human) (UniProt O00590); test: flow cytometry on cells; imaging flow cytometry (ImageStream): uptake of Cy5-labelled CXCL10 (100 nM), 45 min at 37 °C, by HEK293T, HEK-ACKR2 or HEK cells transfected with ACKR2 or CXCR3 vectors; with or without 15 min pre-treatment with unlabelled CCL5 (200 nM); only the binder purified
T1 sequence: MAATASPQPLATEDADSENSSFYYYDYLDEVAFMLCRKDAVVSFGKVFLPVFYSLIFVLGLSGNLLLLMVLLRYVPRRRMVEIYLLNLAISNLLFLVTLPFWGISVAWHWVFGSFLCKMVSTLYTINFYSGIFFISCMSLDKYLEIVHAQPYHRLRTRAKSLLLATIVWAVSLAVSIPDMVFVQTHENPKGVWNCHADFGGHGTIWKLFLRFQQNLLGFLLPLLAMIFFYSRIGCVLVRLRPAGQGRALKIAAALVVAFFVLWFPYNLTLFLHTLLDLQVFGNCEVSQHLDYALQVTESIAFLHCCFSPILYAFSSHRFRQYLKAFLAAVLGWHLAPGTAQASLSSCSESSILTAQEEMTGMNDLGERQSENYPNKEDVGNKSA

[2] = molecular target: T1, human ACKR2 on HEK293T cells (HEK-ACKR2) (human); test: flow cytometry on cells; binding competition on HEK-ACKR2 cells: CXCL10-Cy5 (100 ng/mL) with unlabelled chemokines (50 nM); signal without unlabelled chemokine = 100% binding; only the binder purified
[3] = molecular target: T2, ACKR2 C-terminally fused to SmBiT (human) (UniProt O00590); test: split reporter; NanoBiT in live HEK293T cells co-transfected with receptor-SmBiT and LgBiT-β-arrestin-1/2; signal on addition of chemokines, averaged over 20 min
T2 sequence: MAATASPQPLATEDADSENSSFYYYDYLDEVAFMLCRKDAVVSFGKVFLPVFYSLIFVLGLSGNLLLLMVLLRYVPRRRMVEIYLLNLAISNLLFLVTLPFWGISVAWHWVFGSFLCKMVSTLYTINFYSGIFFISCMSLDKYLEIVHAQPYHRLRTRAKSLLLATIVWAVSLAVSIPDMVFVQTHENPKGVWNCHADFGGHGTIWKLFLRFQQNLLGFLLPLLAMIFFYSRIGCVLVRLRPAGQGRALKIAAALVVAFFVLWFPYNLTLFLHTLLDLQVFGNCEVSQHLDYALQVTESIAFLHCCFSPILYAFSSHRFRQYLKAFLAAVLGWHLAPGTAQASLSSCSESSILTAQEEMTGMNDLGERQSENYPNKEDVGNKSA

[4] = molecular target: T3, ACKR2 C-terminally fused to mNeonGreen (human) (UniProt O00590); test: FRET or BRET; NanoBRET in live HEK293T cells co-transfected with receptor-mNeonGreen and Nanoluciferase-β-arrestin-1; signal on addition of chemokines
T3 sequence: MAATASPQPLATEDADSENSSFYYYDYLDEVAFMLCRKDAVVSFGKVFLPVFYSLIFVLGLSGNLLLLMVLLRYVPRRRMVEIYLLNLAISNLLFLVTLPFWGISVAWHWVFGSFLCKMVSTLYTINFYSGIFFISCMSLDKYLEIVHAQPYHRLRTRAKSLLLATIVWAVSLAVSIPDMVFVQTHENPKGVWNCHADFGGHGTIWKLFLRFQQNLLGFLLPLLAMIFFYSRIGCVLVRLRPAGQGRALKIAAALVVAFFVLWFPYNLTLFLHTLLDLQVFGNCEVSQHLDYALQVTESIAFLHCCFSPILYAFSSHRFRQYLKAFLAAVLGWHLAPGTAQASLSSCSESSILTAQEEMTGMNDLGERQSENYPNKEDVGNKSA

[5] = molecular target: CXCR3 construct of the NanoBRET β-arrestin-1 recruitment assay (human) (UniProt P49682); test: as above
[6] = molecular target: T2, ACKR2 C-terminally fused to SmBiT (human); test: split reporter; NanoBiT in live U87.MG cells co-transfected with ACKR2-SmBiT and LgBiT-β-arrestin-1; signal on addition of chemokines
[7] = molecular target: CXCR3 C-terminally fused to SmBiT (human) (UniProt P49682); test: split reporter; NanoBiT in live HEK293T cells co-transfected with receptor-SmBiT and LgBiT-β-arrestin-1/2; signal on addition of chemokines, averaged over 20 min
[8] = molecular target: T4, mouse ACKR2 on B16.F10 melanoma cells (mouse (endogenous in B16.F10)) (UniProt O08707); test: flow cytometry on cells; uptake of Cy5-labelled mCXCL10 (100 nM), 45 min at 37 °C, by HEK-mACKR2 or B16.F10 cells, with or without polyclonal goat anti-mACKR2 antibody (50 µg/mL) or goat IgG control; mean fluorescence intensity; only the binder purified
T4 sequence: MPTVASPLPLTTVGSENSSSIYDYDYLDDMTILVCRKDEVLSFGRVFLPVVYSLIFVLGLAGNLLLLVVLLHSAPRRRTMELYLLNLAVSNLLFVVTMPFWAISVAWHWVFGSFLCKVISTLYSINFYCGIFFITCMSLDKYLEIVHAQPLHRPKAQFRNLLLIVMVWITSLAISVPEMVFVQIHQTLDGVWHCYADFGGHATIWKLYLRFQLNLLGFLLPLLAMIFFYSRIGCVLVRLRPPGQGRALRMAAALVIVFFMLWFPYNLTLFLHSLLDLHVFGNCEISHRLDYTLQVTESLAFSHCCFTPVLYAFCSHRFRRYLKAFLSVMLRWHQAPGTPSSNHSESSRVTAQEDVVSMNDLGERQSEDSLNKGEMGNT

[9] = molecular target: T5, mouse ACKR2 on HEK293T cells (HEK-mACKR2) (mouse) (UniProt O08707); test: as above
T5 sequence: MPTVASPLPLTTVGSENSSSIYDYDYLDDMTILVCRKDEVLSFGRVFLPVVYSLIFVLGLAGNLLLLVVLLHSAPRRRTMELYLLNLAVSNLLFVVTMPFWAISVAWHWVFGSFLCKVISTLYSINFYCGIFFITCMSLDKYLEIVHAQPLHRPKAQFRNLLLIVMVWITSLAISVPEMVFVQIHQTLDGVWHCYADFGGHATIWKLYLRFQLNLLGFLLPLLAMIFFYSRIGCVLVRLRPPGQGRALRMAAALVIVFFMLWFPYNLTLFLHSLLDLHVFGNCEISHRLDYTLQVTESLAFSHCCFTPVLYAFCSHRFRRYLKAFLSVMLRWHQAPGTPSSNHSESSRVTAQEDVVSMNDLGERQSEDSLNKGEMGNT

Molecule: β-arrestin-1 N-terminally fused to Nanoluciferase (from UniProt P49407 1-418)
- binding [4]: binds
- binding [5]: binds

Molecule: CCL5 (unlabelled) (from UniProt P13501 24-91) (ligand)
- binding [2]: binds

Molecule: human β-arrestin-1 N-terminally fused to LgBiT (from UniProt P49407 1-418)
- binding [6]: binds
- binding [7]: binds
- binding [3]: binds

Second part, the molecule after the results:

- binding [1]: binds
- binding [2]: binds
Molecule: Cy5-labelled CXCL10 (from UniProt P02778 22-98) (ligand)

- binding [3]: binds
Molecule: human β-arrestin-2 N-terminally fused to LgBiT (from UniProt P32121 1-409)

- binding [8]: binds
- binding [9]: binds
B1: Cy5-labelled mouse CXCL10 (ligand, UniProt P17515 22-98)
chain: IPLARTVRCNCIHIDDGPVRMRAIGKLEIIPASLSCPRVEIIATMKKNDEQRCLNPESKTIKNLMKAFSQKRSKRAP
modifications: Cy5 label, site not stated
